# The supplement of paper PMC8728848
# This is one part of the list.
# B1: FimA-N2 (Actinomyces oris) (protein)
# chain: MHHHHHHSSGVDLGTENLYFQSNAWIYDVNVYPKNEAIDVDKTIQAQKLNGYGVGSLIKFPVESTAPTLDAKSFYKYFQLKDTLDERLSEVTATDVSLEGTPLQPTDYKVETKQQTVTVTFTAEGLKKIKAAPGKKVSAVFQGKVTKAGNGAITNRAQVISDTLYAEQPPTPETPPTDPENPPTSDEVISRWGDLSIKKVDTHQQGQTKA
# How the values were obtained:
# Test in all cases: glycan array binding signal (z-score within array); higher = stronger binding
# Conditions in all cases: glycan notation: IUPAC condensed, linker removed
# Gal(b1-2)Gal = target: Gal(b1-2)Gal
# In short: (§1)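 Glycan array data came from 3228 arrays in the Consortium for Functional Glycomics database, and only arrays with an available protein sequence were kept. Glycan names were put into IUPAC-condensed notation, and columns mapping to the same glycan were averaged. The binding signal is a within-array Z-score, averaged across arrays of one protein sequence run at different concentrations or buffers and across linkers. A negative Z-score can be read as non-binding.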
# Gal(b1-3)Gal = target: Gal(b1-3)Gal
# In short: as §1
# Gal(b1-3)Gal(b1-4)GlcNAc = target: Gal(b1-3)Gal(b1-4)GlcNAc
# In short: as §1
# Gal(b1-3)GalNAc = target: Gal(b1-3)GalNAc
# In short: as §1
# [1] = target: Gal(b1-3)GalNAc(a1-3)[Fuc(a1-2)]Gal(b1-4)Glc
# In short: as §1
# [2] = target: Gal(b1-3)GalNAc(a1-3)[Fuc(a1-2)]Gal(b1-4)GlcNAc
# In short: as §1
# Gal(b1-3)GalNAc(b1-3)Gal = target: Gal(b1-3)GalNAc(b1-3)Gal
# In short: as §1
# [3] = target: Gal(b1-3)GalNAc(b1-3)Gal(a1-4)Gal(b1-4)Glc
# In short: as §1
# [4] = target: Gal(b1-3)GalNAc(b1-4)Gal(b1-4)Glc
# In short: as §1
# [5] = target: Gal(b1-3)GalNAc(b1-4)[Neu5Ac(a2-3)]Gal(b1-4)Glc
# In short: as §1
# Gal(b1-3)GlcNAc = target: Gal(b1-3)GlcNAc
# In short: as §1
# [6] = target: Gal(b1-3)GlcNAc(a1-3)Gal(b1-4)GlcNAc
# In short: as §1
# [7] = target: Gal(b1-3)GlcNAc(a1-6)Gal(b1-4)GlcNAc
# In short: as §1
# Gal(b1-3)GlcNAc(b1-2)Man = target: Gal(b1-3)GlcNAc(b1-2)Man
# In short: as §1
# [8] = target: Gal(b1-3)GlcNAc(b1-2)Man(a1-3)[Gal(b1-3)GlcNAc(b1-2)Man(a1-6)]Man(b1-4)GlcNAc(b1-4)GlcNAc
# In short: as §1
# [9] = target: Gal(b1-3)GlcNAc(b1-2)Man(a1-3)[Gal(b1-3)GlcNAc(b1-2)Man(a1-6)]Man(b1-4)GlcNAc(b1-4)[Fuc(a1-6)]GlcNAc
# In short: as §1
# [10] = target: Gal(b1-3)GlcNAc(b1-2)Man(a1-3)[GlcNAc(b1-4)][Gal(b1-3)GlcNAc(b1-2)Man(a1-6)]Man(b1-4)GlcNAc(b1-4)GlcNAc
# In short: as §1
# [11] = target: Gal(b1-3)GlcNAc(b1-2)[Gal(b1-3)GlcNAc(b1-6)]Man(a1-6)[Gal(b1-3)GlcNAc(b1-2)Man(a1-3)]Man(b1-4)GlcNAc(b1-4)GlcNAc
# In short: as §1
# [12] = target: Gal(b1-3)GlcNAc(b1-3)Gal(b1-3)GlcNAc
# In short: as §1
# [13] = target: Gal(b1-3)GlcNAc(b1-3)Gal(b1-4)Glc
# In short: as §1
# [14] = target: Gal(b1-3)GlcNAc(b1-3)Gal(b1-4)GlcNAc
# In short: as §1
# [15] = target: Gal(b1-3)GlcNAc(b1-3)Gal(b1-4)GlcNAc(b1-2)Man(a1-3)[Gal(b1-3)GlcNAc(b1-3)Gal(b1-4)GlcNAc(b1-2)Man(a1-6)]Man(b1-4)GlcNAc(b1-4)GlcNAc
# In short: as §1
# [16] = target: Gal(b1-3)GlcNAc(b1-3)Gal(b1-4)GlcNAc(b1-2)[Gal(b1-3)GlcNAc(b1-3)Gal(b1-4)GlcNAc(b1-6)]Man(a1-6)[Gal(b1-3)GlcNAc(b1-3)Gal(b1-4)GlcNAc(b1-2)Man(a1-3)]Man(b1-4)GlcNAc(b1-4)[Fuc(a1-6)]GlcNAc
# In short: as §1
# [17] = target: Gal(b1-3)GlcNAc(b1-3)Gal(b1-4)GlcNAc(b1-3)Gal(b1-4)GlcNAc(b1-2)[Gal(b1-3)GlcNAc(b1-3)Gal(b1-4)GlcNAc(b1-3)Gal(b1-4)GlcNAc(b1-6)]Man(a1-6)[Gal(b1-3)GlcNAc(b1-3)Gal(b1-4)GlcNAc(b1-3)Gal(b1-4)GlcNAc(b1-2)Man(a1-3)]Man(b1-4)GlcNAc(b1-4)[Fuc(a1-6)]GlcNAc
# In short: as §1
# [18] = target: Gal(b1-3)GlcNAc(b1-3)Gal(b1-4)GlcNAc(b1-6)[Gal(b1-3)GlcNAc(b1-3)]Gal(b1-4)Glc
# In short: as §1
# [19] = target: Gal(b1-3)GlcNAc(b1-3)Gal(b1-4)[Fuc(a1-3)]GlcNAc
# In short: as §1
# [20] = target: Gal(b1-3)GlcNAc(b1-3)Gal(b1-4)[Fuc(a1-3)]GlcNAc(b1-6)[Gal(b1-3)GlcNAc(b1-3)]Gal(b1-4)Glc
# In short: as §1
# [21] = target: Gal(b1-3)GlcNAc(b1-3)GalNAc
# In short: as §1
# [22] = target: Gal(b1-3)GlcNAc(b1-6)Gal(b1-4)GlcNAc
# In short: as §1
# [23] = target: Gal(b1-3)GlcNAc(b1-6)GalNAc
# In short: as §1
# [24] = target: Gal(b1-3)GlcNAc(b1-6)[Gal(b1-3)]GalNAc
# In short: as §1
# Gal(b1-3)GlcNAc6S = target: Gal(b1-3)GlcNAc6S
# In short: as §1
# [25] = target: Gal(b1-3)[Fuc(a1-4)]GlcNAc
# In short: as §1
# [26] = target: Gal(b1-3)[Fuc(a1-4)]GlcNAc(b1-2)Man
# In short: as §1
# [27] = target: Gal(b1-3)[Fuc(a1-4)]GlcNAc(b1-2)Man(a1-3)[Gal(b1-3)[Fuc(a1-4)]GlcNAc(b1-2)Man(a1-6)]Man(b1-4)GlcNAc(b1-4)[Fuc(a1-6)]GlcNAc
# In short: as §1
# [28] = target: Gal(b1-3)[Fuc(a1-4)]GlcNAc(b1-3)Gal(b1-3)[Fuc(a1-4)]GlcNAc
# In short: as §1
# [29] = target: Gal(b1-3)[Fuc(a1-4)]GlcNAc(b1-3)Gal(b1-4)[Fuc(a1-3)]GlcNAc
# In short: as §1
# [30] = target: Gal(b1-3)[Fuc(a1-4)]GlcNAc(b1-6)GalNAc
# In short: as §1
# [31] = target: Gal(b1-3)[GlcNAc(b1-6)]GalNAc
# In short: as §1
# [32] = target: Gal(b1-3)[Neu5Ac(a2-6)]GalNAc
# In short: as §1
# [33] = target: Gal(b1-3)[Neu5Ac(a2-6)]GlcNAc(b1-4)Gal(b1-4)Glc
# In short: as §1
# [34] = target: Gal(b1-3)[Neu5Ac(b2-6)]GalNAc
# In short: as §1
# Gal(b1-4)Gal = target: Gal(b1-4)Gal
# In short: as §1
# [35] = target: Gal(b1-4)GalNAc(a1-3)[Fuc(a1-2)]Gal(b1-4)GlcNAc
# In short: as §1
# [36] = target: Gal(b1-4)GalNAc(b1-3)[Fuc(a1-2)]Gal(b1-4)GlcNAc
# In short: as §1
binder,measurement,setting,value
B1,glycan array binding signal (z-score),Gal(b1-2)Gal,-0.277
same,glycan array binding signal (z-score),Gal(b1-3)Gal,-0.808
same,glycan array binding signal (z-score),Gal(b1-3)Gal(b1-4)GlcNAc,-0.943
same,glycan array binding signal (z-score),Gal(b1-3)GalNAc,-0.095
same,glycan array binding signal (z-score),[1],-1.39
same,glycan array binding signal (z-score),[2],-0.496
same,glycan array binding signal (z-score),Gal(b1-3)GalNAc(b1-3)Gal,-0.678
same,glycan array binding signal (z-score),[3],-0.155
same,glycan array binding signal (z-score),[4],0.824
same,glycan array binding signal (z-score),[5],-0.093
same,glycan array binding signal (z-score),Gal(b1-3)GlcNAc,0.373
same,glycan array binding signal (z-score),[6],-0.415
same,glycan array binding signal (z-score),[7],-1.32
same,glycan array binding signal (z-score),Gal(b1-3)GlcNAc(b1-2)Man,-1.18
same,glycan array binding signal (z-score),[8],-0.179
same,glycan array binding signal (z-score),[9],2.23
same,glycan array binding signal (z-score),[10],-0.373
same,glycan array binding signal (z-score),[11],0.217
same,glycan array binding signal (z-score),[12],0.328
same,glycan array binding signal (z-score),[13],-1.65
same,glycan array binding signal (z-score),[14],-0.883
same,glycan array binding signal (z-score),[15],0.23
same,glycan array binding signal (z-score),[16],3.71
same,glycan array binding signal (z-score),[17],-0.719
same,glycan array binding signal (z-score),[18],-0.655
same,glycan array binding signal (z-score),[19],-0.39
same,glycan array binding signal (z-score),[20],0.426
same,glycan array binding signal (z-score),[21],-0.958
same,glycan array binding signal (z-score),[22],0.036
same,glycan array binding signal (z-score),[23],-1.24
same,glycan array binding signal (z-score),[24],-0.51
same,glycan array binding signal (z-score),Gal(b1-3)GlcNAc6S,-0.106
same,glycan array binding signal (z-score),[25],0.004
same,glycan array binding signal (z-score),[26],-0.351
same,glycan array binding signal (z-score),[27],-0.298
same,glycan array binding signal (z-score),[28],-0.124
same,glycan array binding signal (z-score),[29],1.03
same,glycan array binding signal (z-score),[30],-0.651
same,glycan array binding signal (z-score),[31],-0.076
same,glycan array binding signal (z-score),[32],-0.867
same,glycan array binding signal (z-score),[33],-1.15
same,glycan array binding signal (z-score),[34],-0.556
same,glycan array binding signal (z-score),Gal(b1-4)Gal,-0.537
same,glycan array binding signal (z-score),[35],-0.178
same,glycan array binding signal (z-score),[36],-0.992

# Some of the entries above, reformatted.
binder | measurement | setting | value
B1 | glycan array binding signal (z-score) | Gal(b1-3)Gal(b1-4)GlcNAc | -0.943
same | glycan array binding signal (z-score) | Gal(b1-3)GalNAc | -0.095
